Drawing on PubChem BioAssay AID463183 (Sanford-Burnham Center for Chemical Genomics, 2010), this text covers cell count for 39 compounds.

The list shows a part of the results. Further columns of the screen follow, without active or inactive calls. The list favours compounds with an active or inconclusive main result.

This experiment can be described thus: hepatocyte lipid droplet accumulation inhibitors, confirmation, imaging, AML12 mouse hepatocytes, single concentration, high-content (AID 463183).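 Note: cells counted after overnight compound exposure.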 The conditions noted are these: BODIPY lipid droplet imaging, measured here: cell count, cytotoxicity, at 5.2 µM, droplets induced with 100 µM oleic acid.
`O=[N+]([O-])c1ccccc1/C=C/C=N/Nc1ccc(S(=O)(=O)Nc2ccc(Cl)cc2)cc1[N+](=O)[O-]` yielded a cell count of 1540 cells.
Under `COc1ccccc1NC1=C(N2CCCCC2)C(=O)c2ccccc2C1=O` stands 1550 cells.
The compound `O=C(NCc1ccc2c(c1)OCO2)c1cc(-c2ccccc2)c(N2CCOCC2)s1` came in with a cell count of 1620 cells.
The compound `CCCCOc1ccc(NC(=O)Cn2c(=O)ccc3c(C)cc(C)nc32)cc1` came in with a cell count of 1670 cells.
Under `Cc1ccc2cc(/C=N/NC(=O)[C@H]3C[C@@H]3c3ccccc3)c(Cl)nc2c1` stands 1510 cells; under `Cc1c(Cl)sn(-c2ccc(Cl)cc2)c1=O`, 1060 cells; under `CN(C)/C=N/n1cnc2ccccc2c1=O`, 1630 cells.
Next, `O=C(NCc1ccccc1)C(c1ccccc1F)N(C(=O)c1csnn1)C1CCCC1` (centres undefined): 1610 cells.
Under `Cc1ccc(-n2nc3c(=O)n(CC(=O)NC(C)CCc4ccccc4)nc(C)c3c2C)cc1` (centres undefined) stands 1600 cells.
In turn, `COc1ccc(C2CC(c3cccs3)=NN2C(=O)c2ccc(Br)o2)cc1` (centres undefined) displayed a cell count of 1530 cells.
Next, `Cc1ccc(-c2nnc(OCc3cccnc3)c3ccccc23)cc1`: 1520 cells.
`CN(C)Cc1ccc(O)c(CCc2ccccc2)n1`: the cell count stood at 1600 cells.
Next, `COc1cccc(CNC(=O)CCCc2c[nH]c3ccccc23)c1`: 1600 cells.
With `Cc1ccc(S(=O)(=O)N2CCCCC2)cc1C(=O)N(C)CCOc1ccccc1`, the cell count was 1430 cells.
Next, `CC(Sc1nnc(Nc2ccccc2)s1)C(=O)Nc1nc(-c2ccccc2)cs1` (centres undefined): 1560 cells; `Cc1ccc(NC(=O)CN(C)CC(=O)Nc2ccc(N3CCOCC3)cc2)c(C)c1`: 1570 cells; `Cc1cccc(NC(=O)CSc2nc3ccccc3nc2N2CCCC2)c1C`: 1670 cells.
Next, `Cc1cc2nn(-c3ccc(Cl)cc3)nc2cc1N`: 1620 cells; `COc1ccc2nc(N=Nc3ccc(O)c4ccccc34)sc2c1`: 1300 cells.
Next, `Cc1cc(N(CCO)CCO)ccc1N=Nc1cc(F)ccc1F`: 1550 cells.
For the compound `Cc1ccc(NC(=O)CSc2nnc(C)c(=O)n2N)cc1Cl`, the cell count amounted to 1650 cells.
In turn, `CC1CCN(C2=C(NS(=O)(=O)c3ccc(Br)cc3)C(=O)c3ccccc3C2=O)CC1` returned a cell count of 1510 cells.
Next, `CCCOc1ccc(-c2csc(NC(=O)CN3C(=O)CCC3=O)n2)cc1`: 1660 cells.
Under `CCCC(=O)Nc1cccc(C(=O)Nc2ccccc2OCC)c1` stands 1650 cells; under `COc1cccc(-c2nc(NCc3ccccc3)c3ccccc3n2)c1O`, 1620 cells; under `CCc1ccc(NC(=O)CSc2nc3ccccc3nc2N2CCCC2)cc1`, 1480 cells.
Under `CCOC(=O)N1CCN(C(=O)CSCC(=O)Nc2nc(-c3ccc(-c4ccccc4)cc3)cs2)CC1` stands 1470 cells; under `CCOc1ccc(CCNC(=O)COC(=O)c2cccnc2OCC)cc1OCC`, 1660 cells.
Turning to `FC(F)(F)COc1nc(N2CCOCC2)nc(N(c2ccccc2)c2ccccc2)n1`, the cell count turned out to be 1560 cells.
Next, `COc1cc2ncnc(NCc3ccccc3Cl)c2cc1OC`: 862 cells; `CN1C(=O)[C@H]2[C@@H](C3CC3)N3C(=O)CN(Cc4ccccn4)C(=O)[C@@]3(Cc3ccccc3)[C@H]2C1=O`: 1540 cells.
Under `O=C(Nc1ccc([N+](=O)[O-])cn1)c1cc(-c2cccc(Br)c2)nc2ccccc12` stands 1570 cells; under `CCOc1ccc(NC(=O)CN(C)c2ccc(S(=O)(=O)N(C(C)C)C(C)C)cn2)cc1OCC`, 1620 cells.
The compound `O=C(NCCO)c1cc2ccccc2cc1O` displayed a cell count of 1590 cells.
Next, `CCOc1ccccc1NC(=O)C1CCN(C(=O)NCc2ccccc2)CC1`: 1650 cells; `COc1cccc(NC(=O)CCC(=O)Nc2cc(OC)c(NC(=O)c3cccs3)cc2OC)c1`: 1580 cells; `Cc1ccc(N2C(=O)c3ccccc3NC2(C(=O)O)c2ccccc2)cc1Cl` (centres undefined): 1250 cells.
Next, `CCOC(=O)N1CCN(C(=O)CSCC(=O)Nc2nc(-c3cccs3)cs2)CC1`: 1550 cells; `CCOc1ccc(CCNC(=O)COC(=O)c2cc(OC)c(OC)c(OC)c2)cc1OCC`: 1670 cells.
